Laboratory results published in PubChem BioAssay AID1625 (Sanford-Burnham Center for Chemical Genomics, 2009).
Out of some 190,000 compounds screened, about 570 (0.3%) were called active. Inconclusive results, whose numbers are uncertain, are shown with a selection of clear calls.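 How the source made its calls: active means z-score above 3 at 5 µM with at least 500 cells counted in the well; inconclusive means wells under 500 cells, flagged as cytotoxic or low count; inactive means the rest.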

Assay: up-regulation of insulin promoter-GFP reporter – imaging, high-content screening, mouse beta cells (AID 1625)
Details: MIN6 insulin promoter-GFP reporter, at 5 µM, active compounds read high

SMILES | z-score
CCCCCc1cc(=O)oc2c(C(CCN(CC)CC)c3ccc(N(C)C)cc3)c(OC)cc(OC)c12 (configuration not stated) | inconclusive: -2.62
CCCCCCC(=O)N(O)C1CC(=O)N(c2ccc(Cl)cc2)C1=O (configuration not stated) | inactive: 0.71
C=CCNC(=O)c1c2c(nc3ccccc13)-c1ccccc1CC2 | active: 4.54
CCCCCCCCCCn1c2c(c(=N)c3c1CCC3)CCC2 | inconclusive: -7.08
Cc1ccc(-c2cc(-c3ccco3)c3c(N)c(C(=O)NN)oc3n2)cc1 | active: 3.03
COc1cccc(C(=O)c2sc(NC(C)C)nc2N)c1 | inconclusive: -0.41
CCn1c(SCC(=O)c2c[nH]c3ccccc23)nnc1-c1cccs1 | inconclusive: -2.44
CCCCNC(=O)C1CC(=O)N(C2CCCCC2)C1 (configuration not stated) | active: 3.02
COc1ccc(-n2c(-c3ccc(Br)cc3)c[n+]3c2CCCCC3)cc1 | inconclusive: -2.97
N#CCCn1c(=O)n(CCC#N)c2ccccc21 | inactive: -0.58
CCCCCCCCCCCCCCCC[n+]1ccc(/C=N/O)cc1 | inconclusive: -1.47
CCN(c1ccccc1)S(=O)(=O)c1ccc(Cl)c(NC(=O)CN2CCCCCC2)c1 | inactive: -1.29
CCOc1ccc(NC(=O)Cn2c(=O)oc3ccccc32)cc1 | active: 3.64
Oc1ccccc1/C=N/Nc1nc2ccccc2o1 | inconclusive: -2.53
Cc1cc(/C=C2\Sc3ccccc3N2C)cc(C)[n+]1CC1CCCO1 (configuration not stated) | inconclusive: 2.78
CCC(=O)NC(=S)NNC(=O)c1ccc(O)cc1 | inactive: 1.07
Cc1cc(NNC(=O)Nc2cccc(Cl)c2)nc2c1c(C)nn2C | inconclusive: -2.23
Cc1ccc(NC(=O)/C(=C\C=C\c2ccccc2)NC(=O)c2ccccc2)cc1 | inactive: 0.54
COc1ccccc1/C=C(\C#N)C(=O)Nc1ccc(S(N)(=O)=O)cc1 | inactive: 0.5
CC(C)CNC(=O)CSc1nnc(-c2cccc(S(=O)(=O)N3CCCCC3)c2)o1 | active: 4.75
Cc1noc(C)c1CS(=O)(=O)c1ccc(Br)cc1 | active: 3.18
Cc1oc(-c2cccc3ccccc23)nc1CN1CCN(c2ncnc3ccccc23)CC1 | inactive: -0.47
Cn1nc([N+](=O)[O-])nc1Sc1nnc(-c2ccccc2)o1 | inconclusive: -4.34

SMILES | z-score
Cc1sc2cc3c(c(C(=O)c4ccccc4)[n+]2c1C)-c1cccc2cccc-3c12 | inconclusive: -1.86
O=c1c(N2CCOCC2)c(N2CCOCC2)c1=O | active: 3.02
CCOc1ccc(Nc2nc(NCC3CCCO3)c3ccccc3n2)cc1 (configuration not stated) | inconclusive: -3.3
OC(CNCCC1C=Nc2ccccc21)Cn1c2ccc(Cl)cc2c2cc(Cl)ccc21 (configuration not stated) | inconclusive: -0.85
CCC(CC)=NNc1ccc([N+](=O)[O-])cc1[N+](=O)[O-] | inactive: -0.43
O=C(c1ccc(CS(=O)(=O)c2ccc(Br)cc2)o1)N1CCN(C2CCCCC2)CC1 | inconclusive: -3.48
CCN(CC)CCOc1ccc(Br)cc1 | inactive: -0.32
COc1cccc(N2CCN(c3ncnc4c3[nH]c3ccccc34)CC2C)c1 (configuration not stated) | inconclusive: -1.7
S=C(Nc1ccc(Cl)c(Cl)c1)NC1CCN(Cc2ccccc2)CC1 | inconclusive: -1.39
COC(=O)c1ccccc1NC(=O)c1ccc(COc2ccc(C)c(C)c2)o1 | inactive: 0.4
O=S(=O)(Nc1cc(Sc2cccc3cccnc23)c(O)c2ccccc12)c1ccccc1 | inconclusive: -2.04
CCOC(=O)N1[C@@H]2C=C(C)[C@@H]2[C@@H]2[C@@H](C)C(=O)N21 | inconclusive: -4.91
COc1ccc(Nc2cc(C)c3ccc(O)cc3n2)cc1 | inactive: 0.74
CC(=O)NNC(=S)NC(=O)c1cccc([N+](=O)[O-])c1 | inactive: -0.19
C=CCOc1ccc2ccccc2c1CNCCCN1CCOCC1 | inactive: -2.05
CCn1ncc(C2=NOC(C(=O)Nc3cnn(C45CC6CC(CC(C6)C4)C5)c3)C2)c1C (configuration not stated) | inconclusive: -2.25
CC1(C)COC(/C=C/c2ccc([N+](=O)[O-])cc2)=N1 | inconclusive: -0.54
O=c1c(Cl)c(Cl)cnn1Cc1ccccc1Cl | inconclusive: -1.73
COC(=O)C1=C(Nc2ccc(C)cc2)C=C(C)C(C(=O)OC)C1c1ccc(F)cc1 (configuration not stated) | inconclusive: -1.35
CS(=O)(=O)ON=C1CCN(S(=O)(=O)c2ccccc2)CC1 | active: 3.51
COc1cccc(Cn2c(NCc3ccco3)nc3c2c(=O)n(C)c(=O)n3C)c1 | inconclusive: -5.18
C/C(=N/NC(=O)CCC(=O)Nc1cccc(Cl)c1)c1ccc(C)cc1 | inconclusive: -5.28
COc1ccc(NC(=O)c2cc3c(=O)n(C)c4ccccc4c3s2)cc1OC | inactive: -1.06

SMILES | z-score
O=C1C(Cl)=C(N2CCN(c3ccccc3[N+](=O)[O-])CC2)C(=O)c2ccccc21 | inconclusive: -0.71
C=CCNC(=O)C1CCN(S(=O)(=O)c2ccc(Br)cc2)CC1 | active: 3.14
CCOc1ccccc1C1CC(c2ccc(F)cc2)Nc2nc(N)nn21 (configuration not stated) | inactive: 0.35
CCCn1nc2cc(C(=O)NCc3ccccc3)ccc2c1OCC | active: 4.73
Cc1ccnc(N2C(=O)c3cccc4c([N+](=O)[O-])ccc(c34)C2=O)c1 | active: 3.14
CSC1=NCCN1C(=O)c1cccs1 | inactive: 1.08
CCc1ccc(CNc2ccc3c(c2)ncn3C)cc1 | inactive: -1.96
Cc1ccc(-c2noc(CCC(=O)NCCN3CCN(Cc4ccccc4)CC3)n2)cc1 | inconclusive: -0.24
COc1ccc(-c2cn(-c3ccc(OC)cc3)c3[n+]2-c2ccccc2CC3)cc1 | inconclusive: -4.81
COc1ccc(CCNc2c(C)c(C)nc3ncnn23)cc1 | inconclusive: -5
C=CCc1cccc(/C=N/NC(=O)C(C)Nc2ccc(C)cc2)c1O (configuration not stated) | inconclusive: -4.85
COc1ccc(NC(=O)C(C)N2c3cccc4cccc(c34)S2(=O)=O)cc1OC (configuration not stated) | inconclusive: -1.66
CCCSc1nc2c(c(=O)n(C)c(=O)n2C)n1Cc1ccc(C)cc1 | inconclusive: -0.14
COc1ccccc1[C@@H]1C(c2cccc(Cl)c2)=NN(c2ccc(Br)cc2)[C@H]1C(=O)N1CCOC1=O | inconclusive: -4.98
CCOC(=O)C1CCN(Cc2ccc(O)c3ncccc23)CC1 | inconclusive: -1.72
O=C(Nc1nc2c(F)cc(F)cc2s1)c1ccccn1 | inconclusive: -2.56
COc1ccc(-n2c(-c3ccc(Cl)cc3)c[n+]3c2CCCCC3)cc1 | inconclusive: -2.06
CCn1cc(C(=O)N2CCN(c3ccccn3)CC2)c(=O)c2cc(S(=O)(=O)N(C)C3CCCCC3)ccc21 | inactive: -0.24
Nc1nn2cc(-c3ccccc3)nc2c2ccccc12 | inactive: -0.54
CC1CC(CC(=O)NC(=S)Nc2ccccc2Cl)C(=O)O1 (configuration not stated) | inactive: -2.25
Cc1cccc(OCCNc2nc3c(c(=O)n(C)c(=O)n3C)n2C)c1 | active: 4.22
CN1CCN(c2ccc(Cl)cc2NC(=O)c2cccc(S(=O)(=O)N(C)C)c2)CC1 | inactive: 0.47
O=C(N/N=C/C1CC=CCC1)c1cc(-c2cccnc2)nc2ccccc12 (configuration not stated) | inactive: -0.41

SMILES | z-score
COc1cc([N+](=O)[O-])ccc1NC(=O)CC1SC(=Nc2ccc(F)cc2)N(CCC2=CCCCC2)C1=O (configuration not stated) | inconclusive: -1.93
CCCCCc1cc(=O)oc2c(C(CCN3CCCC3)c3cc(OC)c(OC)c(OC)c3)c(OC)cc(OC)c12 (configuration not stated) | inconclusive: -5.29
Cc1ccc(OCC2Cn3c(nc4c3c(=O)[nH]c(=O)n4C)O2)cc1 (configuration not stated) | inconclusive: -1.79
O=C(/C=C/c1cccnc1)/C=C/c1cccnc1 | inconclusive: -4.91
Cc1cccc(NC2=C/C(=N/S(=O)(=O)c3cccs3)c3ccccc3C2=O)c1 | inconclusive: -2.76
CCc1c(C(=O)NC2CCCCC2)[nH]c(C)c1C(C)=O | active: 3.85
CCOc1ccc(S(=O)(=O)N2c3ccccc3CC2C)cc1 (configuration not stated) | inconclusive: 0
N#Cc1cnn(-c2cccc(Cl)c2)c1-n1cccc1 | inactive: 0.16
C=CCSc1ncc(C(=O)OCC)c(N)n1 | inactive: 0.22
S=C(Sc1ccc(Cl)cc1)Sc1ccc(Cl)cc1 | inconclusive: -3.88
COc1ccc(C2/C=C\CN(S(=O)(=O)c3cccc4cccnc34)CC(=O)N2Cc2ccc(F)cc2)cc1 (configuration not stated) | active: 7.49
CCCCn1c(=N)n(CC(O)COc2cccc(C)c2)c2ccccc21 (configuration not stated) | inconclusive: -1.04
C#CC[N+](C)(C)CCCCCCCCCCCC | inconclusive: -4.46
Cc1nn(Cc2ccccc2)c(Cl)c1/C=N/NC(=O)c1cccnc1 | inconclusive: -5.55
N=c1c2c(-c3ccccc3)c(-c3ccccc3)n(Cc3ccco3)c2ncn1CCCn1ccnc1 | inconclusive: -2.37
COc1ccc(/C=C/c2cc(-c3ccc(C)cc3)o[n+]2C)cc1 | inconclusive: -6.69
O=C(Nc1nccs1)c1cccc(N2C(=O)c3cccc4c([N+](=O)[O-])ccc(c34)C2=O)c1 | inconclusive: 2.14
C[n+]1c2n(c3ccccc31)N=C(c1ccc(-c3ccccc3)cc1)CS2 | inconclusive: -2.61
COc1ncccc1-c1nnn(-c2ccc(Cl)nc2)n1 | inactive: -0.36
O=C(c1cc([N+](=O)[O-])ccc1N1CCCC1)N1CCCC1 | active: 3.06
COc1ccc(/C=N/OCC(=O)NC(c2ccccc2)c2ccccc2)cc1OC | inconclusive: -4.08
CC(C)C(C)(C#N)NC(=O)CSc1nnc(C(F)(F)F)n1C (configuration not stated) | active: 3.02
Cc1cc(/C=N/n2cnnc2)c(C)n1-c1ccc(OCc2ccc(Cl)cc2)cc1 | inconclusive: -5.4

A few values from the entries so far:
Value of C=CCSc1ncc(C(=O)OCC)c(N)n1 under z-score: inactive: 0.22
Value of O=C(c1cc([N+](=O)[O-])ccc1N1CCCC1)N1CCCC1 under z-score: active: 3.06
Value of N=c1c2c(-c3ccccc3)c(-c3ccccc3)n(Cc3ccco3)c2ncn1CCCn1ccnc1 under z-score: inconclusive: -2.37
Value of COc1ccc(C2/C=C\CN(S(=O)(=O)c3cccc4cccnc34)CC(=O)N2Cc2ccc(F)cc2)cc1 (configuration not stated) under z-score: active: 7.49
